The assay concerns the target T1, 3 × FLAG-TMED3 (Transmembrane emp24 domain-containing protein 3) (UniProt Q9Y3Q3).
T1 sequence: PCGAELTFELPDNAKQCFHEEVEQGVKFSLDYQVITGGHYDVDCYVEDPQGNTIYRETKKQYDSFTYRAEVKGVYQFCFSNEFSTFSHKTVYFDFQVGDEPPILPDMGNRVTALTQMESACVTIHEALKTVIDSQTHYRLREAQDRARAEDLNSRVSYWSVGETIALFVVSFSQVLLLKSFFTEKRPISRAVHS
As to the kind of experiment: co-IP; FLAG beads (Sigma, A2220) on lysates of NC and OE (3xFLAG-TMED3) U87 MG cells; Western blot of input and IP samples.

Sequences of proteins named here, by UniProt entry; tags and fusion partners are left off.
UniProt O95365: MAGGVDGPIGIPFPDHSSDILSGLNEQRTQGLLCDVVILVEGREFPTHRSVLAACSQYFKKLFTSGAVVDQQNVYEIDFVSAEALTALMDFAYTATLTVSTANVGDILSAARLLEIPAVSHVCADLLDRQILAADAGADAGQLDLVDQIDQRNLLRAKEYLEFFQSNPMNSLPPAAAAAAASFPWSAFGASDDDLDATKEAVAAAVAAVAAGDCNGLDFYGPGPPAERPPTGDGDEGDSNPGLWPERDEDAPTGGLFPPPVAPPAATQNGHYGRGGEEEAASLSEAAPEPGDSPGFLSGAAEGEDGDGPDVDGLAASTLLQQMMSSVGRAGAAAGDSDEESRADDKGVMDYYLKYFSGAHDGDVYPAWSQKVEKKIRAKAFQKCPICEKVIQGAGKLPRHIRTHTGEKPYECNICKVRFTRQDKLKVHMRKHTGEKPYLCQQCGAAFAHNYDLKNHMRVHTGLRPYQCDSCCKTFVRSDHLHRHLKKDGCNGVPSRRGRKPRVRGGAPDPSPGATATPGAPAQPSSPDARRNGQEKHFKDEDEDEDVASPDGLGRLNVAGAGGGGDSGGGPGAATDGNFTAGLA
UniProt Q13283: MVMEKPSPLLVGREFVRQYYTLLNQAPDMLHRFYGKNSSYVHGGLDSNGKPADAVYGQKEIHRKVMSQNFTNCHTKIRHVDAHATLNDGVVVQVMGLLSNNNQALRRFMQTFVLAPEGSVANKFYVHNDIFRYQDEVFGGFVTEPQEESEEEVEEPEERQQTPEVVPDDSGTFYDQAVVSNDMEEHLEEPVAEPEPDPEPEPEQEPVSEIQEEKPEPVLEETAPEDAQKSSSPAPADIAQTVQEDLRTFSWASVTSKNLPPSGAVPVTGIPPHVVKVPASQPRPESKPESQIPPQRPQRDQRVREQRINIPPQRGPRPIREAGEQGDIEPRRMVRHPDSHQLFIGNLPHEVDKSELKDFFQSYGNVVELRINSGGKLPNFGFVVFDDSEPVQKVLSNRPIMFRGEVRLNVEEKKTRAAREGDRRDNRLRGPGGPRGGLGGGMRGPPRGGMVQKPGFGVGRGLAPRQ

Experimental findings from article PMC12141185 are described below.

No constants are given. Whether binding was seen depends on the method and setting. Binding seen in cells or lysates may run through a third protein. Some entries that bind do so weakly or less than the wild type. Tags and fused reporters may be left off the sequences shown.

“Zinc finger and BTB domain-containing protein 7A (ZBTB7A) (from UniProt O95365 1-584)”: the binding result is “binds”. Then G3BP1 (from UniProt Q13283 1-466), with “binds”.
